From paper PMC12536475

Target: T1, purinergic P2X3 receptor (mouse (endogenous in DRG)) (UniProt Q3UR32)
T1 sequence: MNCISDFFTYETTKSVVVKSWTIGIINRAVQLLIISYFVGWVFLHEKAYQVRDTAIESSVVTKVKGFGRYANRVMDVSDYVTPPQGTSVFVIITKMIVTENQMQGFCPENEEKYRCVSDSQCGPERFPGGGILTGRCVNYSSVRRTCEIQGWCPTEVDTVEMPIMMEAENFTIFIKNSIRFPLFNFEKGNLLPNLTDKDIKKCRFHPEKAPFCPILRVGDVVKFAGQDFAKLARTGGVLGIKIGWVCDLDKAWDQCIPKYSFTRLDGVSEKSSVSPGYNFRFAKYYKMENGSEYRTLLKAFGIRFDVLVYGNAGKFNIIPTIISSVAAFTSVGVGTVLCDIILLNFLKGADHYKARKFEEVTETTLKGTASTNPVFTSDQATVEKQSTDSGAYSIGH
Assay: affinity purification with mass spectrometry; anti-P2X3R immunoprecipitates from the DRG of 8-week naive mice, LC-MS/MS; hits with fold change > 2

binding: binds
B1: periaxin (protein, UniProt O55103 1-1391)
chain: MEARSRSAEELRRAELVEIIVETEAQTGVSGFNVAGGGKEGIFVRELREDSPAAKSLSLQEGDQLLSARVFFENFKYEDALRLLQCAEPYKVSFCLKRTVPTGDLALRPGTVSGYEMKGPRAKVAKLNIQSLAPVKKKKMVTGALGTPADLAPVDVEFSFPKFSRLRRGLKAEAVKGPVPAAPARRRLQLPRLRVREVAEEAQVARMAAAAPPPRKAKAEAEAATGAGFTAPQIELVGPRLPSAEVGVPQVSVPKGTPSTEAASGFALHLPTLGLGAPAAPAVEPPATGIQVPQVELPTLPSLPTLPTLPCLDTQEGAAVVKVPTLDVAAPSMGVDLALPGAEVEAQGEVPEVALKMPRLSFPRFGIRGKEATEAKVVKGSPEAKAKGPRLRMPTFGLSLLEPRPSGPEAVAESKLKLPTLKMPSFGIGVAGPEVKAPTGPEVKLPKVPEVKLPKVPEAAIPDVQLPEVQLPKMSDMKLPKIPEMVVPDVRLPEVQLPKVPEMKVPEMKLPKWPEMAVPDVHLPDVQLPKVPEMKLPKVPEMAVPDVHLPDVQLPKVPEMKLPEMKLPKVPEMAVPDVRLPEVQLPKVSEVKLPKMPEMAVPDVHLPELQLPKMSEVKLPKMPEMAVPDVRLPEVQLPKVSEMKLPKMPEMTMPDIRLPEVQLPKVPDIKLPEMKLPEIKLPKVPDMAVPDVPLPELQLPKVSDIRLPEMQVSQVPEVQLPKMPEMKLSKVPEVQRKSAGAEQAKGTEFSFKLPKMTMPKLGKVGKPGEASIEVPDKLMTLPCLQPEVGTEASHVGVPSLSLPSVELDLPGALGLEGQVQEAVPGKVEKPEGPRVAVGVGEVGFRVPSVEIVTPQLPTVEVEKEQLEMVEMKVKPSSKFSLPKFGLSGPKAVKGEVEGPGRATKLKVSKFTISLPKARAGTEAEAKGAGEAGLLPALDLSIPQLSLDAQLPSGKVEVADSKPKSSRFALPKFGVKGRDSEADVLVAGEAELEGKGWGWDGKVKMPKLKMPSFGLSRGKEAETQDGRVSPGEKLEAIAGQLKIPAVELVTPGAQETEKVTSGVKPSGLQVSTTGQVVAEGQESVQRVSTLGISLPQVELASFGEAGPEIVAPSAEGTAGSRVQVPQVMLELPGTQVAGGDLLVGEGIFKMPTVTVPQLELDVGLGHEAQAGEAAKSEGGIKLKLPTLGTGSRGEGVEPQGPEAQRTFHLSLPDVELTSPVSSHAEYQVVEGDGDGGHKLKVRLPLFGLAKAKEGIEVGEKVKSPKLRLPRVGFSQSESVSGEGSPSPEEEEEGSGEGASSRRGRVRVRLPRVGLASPSKVSKGQEGDATSKSPVGEKSPKFRFPRVSLSPKARSGSRDREEGGFRVRLPSVGFSETAVPGSTRIEGTQAAAI

No constants are given. Whether binding was seen depends on the method and setting. In cells and extracts the contact can be indirect. These calls come from enrichment with a bait or labelling near it, and not all partners need be listed.
